In the supplement of paper PMC7024190:
Some of the results follow. Repeats in this data set agree poorly, so a single value says little.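 Human embryonic kidney cells were transiently transfected with a plasmid bearing a Renilla luciferase gene under the HSV-TK promoter. This first-round screen tests roughly ten thousand compounds for ones that increase reporter output.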

Each compound was assayed on HEK 293FT (assay: log relative Renilla luciferase luminescence (reporter expression vs reference, reference not stated) (log (base not stated)); higher = higher recombinant reporter expression). Details: 10 µM; time after transfection 48 h.
Procedure: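 HEK 293FT cells transiently transfected with pRL-TK (Renilla luciferase) were treated with compounds at 10 uM and luminescence was read about 42 h later. Values are log relative Renilla luminescence (log base and reference not stated). Single-pass screen; ICCB Known Bioactives library.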

Row | SMILES | log
1 | CC(C)n1cnc2c(NCc3ccccc3)nc(NCCO)nc21 [N9-Isopropylolomoucine] | 0.344
2 | CO[C@@]12[C@H](COC(N)=O)C3=C(C(=O)C(C)=C(N)C3=O)N1C[C@@H]1N[C@@H]12 [Mitomycin C] | -0.00123
3 | CN(C)C(=O)C(CCN1CCC(O)(c2ccc(Cl)cc2)CC1)(c1ccccc1)c1ccccc1 [Loperamide] | 0.216
4 | CCCCCCCC/C=C\CCCCCCCC(N)=O [9,10-Octadecenoamide] | 0.171
5 | CCCCC/C=C\C/C=C\C/C=C\CCCCC(=O)O [g-Linolenic acid (18:3 n-6)] | -0.229
6 | O=C1CN(/N=C/c2ccc(-c3ccc([N+](=O)[O-])cc3)o2)C(=O)N1 [Dantrolene] | -0.115
7 | O=c1c(-c2ccc(O)cc2)coc2cc(O)cc(O)c12 [Genistein] | 0.374
8 | CCCCC/C=C\C[C@@H](O)/C=C/c1cccc(C[C@@H](O)CCCCO)n1 | -0.0782
9 | CC[C@@H]1/C=C(\C)C[C@H](C)C[C@H](OC)[C@H]2O[C@@](O)(C(=O)C(=O)N3CCCC[C@H]3C(=O)O[C@H](/C(C)=C/[C@@H]3CC[C@@H](O)[C@H](OC)C3)[C@H](C)[C@@H](O)CC1=O)[C@H](C)C[C@@H]2OC [Ascomycin (FK-520)] | -0.514
10 | COC(=O)[C@@H]1[C@H]2C[C@H]3c4[nH]c5ccccc5c4CCN3C[C@@H]2CC[C@@H]1O [Yohimbine] | 0.0551
11 | CCCCNc1cc(C(=O)O)cc(S(N)(=O)=O)c1Oc1ccccc1 [Bumetanide] | -0.107
12 | Nc1ccc2c3c(cccc13)C(=O)NC2=O [Amino-1,8-naphthalimide [4-Amino-1,8-naphthalimide]] | -0.692
13 | COCc1nc2c([nH]1)c(=O)n(C)c(=O)n2CC(C)C [8-Methoxymethyl-IBMX] | -0.285
14 | CC1=Nc2ccc(Cl)cc2S(=O)(=O)N1 [Diazoxide] | 0.485
15 | CC/C=C\C/C=C\C/C=C\CCCCCCCCCC(=O)O [Eicosatrienoic acid (20:3 n-3)] | -0.191
16 | CCCCC/C=C\C/C=C\C/C=C\CCCCCCC(=O)O [Dihomo-gamma-linolenic acid] | -0.281
17 | N=C(NC(=O)c1nc(Cl)c(N)nc1N)Nc1ccccc1 [Phenamil] | -0.0134
18 | CCCCCC[C@@H]([C@@H](C)O)n1cnc2c(N)ncnc21 | -0.482
19 | C[C@@H](N)[C@H]1CC[C@H](C(=O)Nc2ccncc2)CC1 | -0.169
20 | CS(=O)(=O)Nc1ccc([N+](=O)[O-])cc1Oc1ccccc1 [Nimesulide] | -0.154

Sorted by SMILES length (rising): some entries from above
Row | SMILES | log
15 | CC/C=C\C/C=C\C/C=C\CCCCCCCCCC(=O)O [Eicosatrienoic acid (20:3 n-3)] | -0.191
3 | CN(C)C(=O)C(CCN1CCC(O)(c2ccc(Cl)cc2)CC1)(c1ccccc1)c1ccccc1 [Loperamide] | 0.216
9 | CC[C@@H]1/C=C(\C)C[C@H](C)C[C@H](OC)[C@H]2O[C@@](O)(C(=O)C(=O)N3CCCC[C@H]3C(=O)O[C@H](/C(C)=C/[C@@H]3CC[C@@H](O)[C@H](OC)C3)[C@H](C)[C@@H](O)CC1=O)[C@H](C)C[C@@H]2OC [Ascomycin (FK-520)] | -0.514

(further entries)

Row | SMILES | log
21 | CCCCC/C=C\C=C\[C@@H](O)CCCCCCCC(=O)O | -0.0126
22 | CC(=O)NC(C)(C)C(=O)N1CCC[C@H]1C(=O)NC(C)(C)C(=O)N[C@@H](C)C(=O)NC(C)(C)C(=O)N[C@@H](C)C(=O)N[C@@H](CCC(N)=O)C(=O)NC(C)(C)C(=O)N[C@H](C(=O)NC(C)(C)C(=O)NCC(=O)N[C@@H](CC(C)C)C(=O)NC(C)(C)C(=O)N1CCC[C@H]1C(=O)N[C@H](C(=O)NC(C)(C)C(=O)NC(C)(C)C(=O)N[C@@H](CCC(=O)O)C(=O)N[C@@H](CCC(N)=O)C(=O)N[C@H](CO)Cc1ccccc1)C(C)C)C(C)C [Alamethicin] | -0.183
23 | COc1cc2c3cc1Oc1c(OC)c(OC)cc4c1[C@@H](Cc1ccc(OC(=O)c5ccc([N+](=O)[O-])cc5)c(c1)Oc1ccc(cc1)C[C@@H]3N(C)CC2)N(C)CC4 [E6 Berbamine] | 0.407
24 | CCC(C)[C@H](NS(=O)(=O)c1cccc2ccccc12)C(=O)N[C@H](C=O)Cc1c[nH]c2ccccc12 (stereo not given in full) | 0.312
25 | CCCCC/C=C\C/C=C\CCCCCCCCCC(=O)O [Eicosadienoic acid (20:2 n-6)] | -0.229
26 | CCCCCC(O)c1cccc(OCc2ccc3ccccc3n2)c1 (stereo not given) | 0.1
27 | CCCCC/C=C\C\C=C/C=C/C=C/CC(=O)CCCC(=O)O [5-Ketoeicosatetraenoic acid] | -0.00555
28 | COc1ccc([C@@H]2Sc3ccccc3N(CCN(C)C)C(=O)[C@@H]2OC(C)=O)cc1 [Diltiazem] | 0.232
29 | O=C1CCC(N2C(=O)c3ccccc3C2=O)C(=O)N1 (stereo not given) [Thalidomide] | -0.00904
30 | CC/C=C\C/C=C\C/C=C\C/C=C\C/C=C\CCCCCC(=O)O [Docosapentaenoic acid] | -0.374
31 | OCCN(CCO)c1nc(N2CCCCC2)c2nc(N(CCO)CCO)nc(N3CCCCC3)c2n1 [Dipyridamole] | -0.495
32 | CC(/C=C/c1cccc(Oc2ccc(F)cc2)c1)N(O)C(N)=O (stereo not given) | -0.0741
33 | CC(=O)O[C@H]1C(=O)[C@@]2(C)[C@H]([C@H](OC(=O)c3ccccc3)[C@]3(O)C[C@H](OC(=O)[C@H](O)[C@@H](NC(=O)c4ccccc4)c4ccccc4)C(C)=C1C3(C)C)[C@]1(OC(C)=O)CO[C@@H]1C[C@@H]2O [Taxol = Paclitaxel] | 0.106
34 | CCCCCC(O)C=CC1C(O)CC(O)C1CCCCCCC(=O)O (stereo not given) [Prostaglandin F1a] | 0.0123
35 | Cc1c(C(=O)NN2CCCCC2)nn(-c2ccc(Cl)cc2Cl)c1-c1ccc(I)cc1 | 0.0452
36 | CCCCCCCC(=O)OC[C@H](CO)OC(=O)CCCCCCC [1,2-Dioctanoyl-sn-glycerol] | 0.167
37 | CC(C)C[C@H](NC(=O)[C@@H](O)[C@H](N)Cc1ccccc1)C(=O)O [Bestatin] | 0.254
38 | COC(=O)c1c(C)[nH]c(C)c1C(=O)c1ccccc1Cc1ccccc1 | -0.0542
39 | Cc1cccc(Nc2cc(Cl)nc(SCC(=O)O)n2)c1C | -0.23
40 | CC(C)C[C@@H](C=O)NC(=O)[C@H](CC(C)C)NC(=O)[C@H](CC(C)C)NC(=O)OCc1ccccc1 | -1.5
